This experiment deals with TLE4-FLAG-MYC (mouse TLE4) (mouse) (UniProt Q62441). The experiment can be described thus: co-IP; Neuro-2a cells co-transfected with Fezf2-his-myc, Tle4-flag-myc and GFP-his-myc; nuclear extract (Active Motif Nuclear Complex Co-IP kit); immunoprecipitated overnight at 4°C with Flag beads or GFP antibody; eluted with 0.1 M glycine pH 2.5; Western blot.

By UniProt entry, the sequences of proteins in these tests, tags left out.
UniProt Q62441: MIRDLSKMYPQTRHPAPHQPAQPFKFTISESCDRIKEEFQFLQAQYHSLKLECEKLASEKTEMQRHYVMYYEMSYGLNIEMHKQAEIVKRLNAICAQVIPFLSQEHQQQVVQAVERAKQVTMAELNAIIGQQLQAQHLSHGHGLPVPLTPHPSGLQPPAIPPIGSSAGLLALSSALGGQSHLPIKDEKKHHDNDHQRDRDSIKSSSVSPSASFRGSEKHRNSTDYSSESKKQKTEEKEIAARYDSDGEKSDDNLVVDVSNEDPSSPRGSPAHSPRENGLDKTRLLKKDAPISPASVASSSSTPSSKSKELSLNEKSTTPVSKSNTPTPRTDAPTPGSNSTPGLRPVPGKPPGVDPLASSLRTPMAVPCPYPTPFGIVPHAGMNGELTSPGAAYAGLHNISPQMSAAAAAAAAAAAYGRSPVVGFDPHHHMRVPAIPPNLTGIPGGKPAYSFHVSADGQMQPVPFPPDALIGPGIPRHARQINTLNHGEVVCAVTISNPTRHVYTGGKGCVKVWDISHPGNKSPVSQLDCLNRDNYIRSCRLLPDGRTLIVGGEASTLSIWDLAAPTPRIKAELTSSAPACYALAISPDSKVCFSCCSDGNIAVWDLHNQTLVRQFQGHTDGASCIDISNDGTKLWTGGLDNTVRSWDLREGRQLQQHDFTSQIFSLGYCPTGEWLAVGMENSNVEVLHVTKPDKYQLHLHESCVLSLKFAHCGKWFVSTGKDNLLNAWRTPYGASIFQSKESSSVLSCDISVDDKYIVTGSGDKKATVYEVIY
UniProt Q9ESP5: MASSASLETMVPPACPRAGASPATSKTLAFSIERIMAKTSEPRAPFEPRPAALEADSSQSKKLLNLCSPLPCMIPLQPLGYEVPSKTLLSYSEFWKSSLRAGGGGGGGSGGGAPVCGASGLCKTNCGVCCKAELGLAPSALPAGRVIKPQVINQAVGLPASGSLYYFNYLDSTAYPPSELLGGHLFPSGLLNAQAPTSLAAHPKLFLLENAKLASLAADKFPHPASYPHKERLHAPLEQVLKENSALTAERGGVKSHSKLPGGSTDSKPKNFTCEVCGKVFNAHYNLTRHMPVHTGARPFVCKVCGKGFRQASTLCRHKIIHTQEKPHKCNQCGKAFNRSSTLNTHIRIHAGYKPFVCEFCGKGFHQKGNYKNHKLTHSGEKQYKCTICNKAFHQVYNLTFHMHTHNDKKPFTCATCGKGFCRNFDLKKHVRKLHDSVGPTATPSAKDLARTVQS

Results are given in words; binding and its absence hold for the method and conditions named. In cells and extracts the contact can be indirect. Some results given as binding are weak or reduced against the parent protein; the word gives no strength.

1 substance from article PMC8327856 can be followed below.

With “FEZF2-HIS-MYC (mouse FEZF2) (from UniProt Q9ESP5 1-455)”, the binding entry is reported as “binds”.
